Record: PubChem BioAssay AID743454 (Peter MacCallum Cancer Centre, 2014)
Purpose: 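Knock-downs lowering viability or raising caspase 3/7 activity in vorinostat-treated resistant cells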 (primary screen). Cell system: human HCT116-VR colon cancer cells, selected for vorinostat resistance. Reagents: siRNA pool against human genes, 40 nM siRNA pool. Timing: vorinostat for 24 h, read-out about 72 h after transfection. Treatment: vorinostat at 2.5 µM final. Read-out: 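Two measures, CellTiter-Fluor viability and luminescent caspase 3/7 activity, each as fold change against same-plate mock wells, mean of duplicates, then screen-wide robust z-score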. Direction: viability robust z-score: higher = more viable cells than screen typical; caspase robust z-score: higher = more caspase 3/7 activity than screen typical. Rule for the call: 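a knock-down is a hit when classed RV1 or RV2 for lowered viability, or CA1 or CA2 for caspase activation; those lethal without drug were dropped; hits were retested singly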.
The deposit covers about 18,000 reagents; shown is an unselected part. Of all reagents, 450 (2.5%) got an active call. 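Single biological run; no consistent viability z cut-off exists, so the class columns, not z-scores, define the calls.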 A number with no mark means an inactive call.

Target gene	viability hit class	caspase hit class	viability robust z-score	caspase robust z-score
DHFR	no change	no change	-0.34	-0.6
OR5P3	no change	no change	-0.57	0.34
TMEM31	no change	no change	0.24	-1.18
NME2	no change	no change	0.68	0.58
CPE	no change	no change	0.58	-0.66
GSTA3	no change	no change	1.77	0.51
LOC100288884 (retired record)	no change	no change	-1.96	4.68
ARHGAP17	no change	no change	0.65	1.03
GUCA1C	no change	no change	-0.76	2.23
MIDEAS	no change (active)	CA1 (caspase activation)	-0.23	7.98
XKRX	no change	no change	0.76	-0.24
LYPLAL1	no change	no change	0.02	-0.3
COA4	no change	no change	1.01	-0.15
MTF1	no change	no change	-1.12	0.94
OR10A4	no change	no change	0.68	-0.37
TTLL5	no change	no change	-2.1	-0.84
NAPB	no change	no change	-1.03	-0.51
ZBED1	no change	no change	-0.69	-0.6
MOB1B	no change	no change	-1.46	-1.33
CAPRIN1	no change	no change	0.32	0.93
KLF6	no change	no change	-0.34	0.18
SND1	no change	no change	-0.47	-0.72
OTUD6B	no change	no change	-0.12	-0.97
EDIL3	no change	no change	-0.27	-0.11
NBN	no change	no change	0.91	0.04
KLHL34	no change	no change	1.06	-0.12
DNAJB4	no change	no change	-0.74	-0.98
KLF10	no change	no change	0.08	0.05
ZNF763	no change	no change	0.14	-1.23
LY6G6C	no change	no change	-0.3	1
SPATA31A3	no change	no change	-1.06	-0.02
RSPH3	no change	no change	-0.36	0.96
FER1L5	no change	no change	1.81	-0.7
DNAJC21	no change	no change	-0.64	-0.81
ADCY3	no change	no change	0.18	-0.88
PROK1	no change	no change	-1.92	3.25
WNT4	no change	no change	-1.01	1.82
MS4A5	no change	no change	0.86	-0.84
MRPL10	no change	no change	0.07	-1.14

Active calls (from the list above):
Target gene	viability hit class	caspase hit class	viability robust z-score	caspase robust z-score
MIDEAS	no change (active)	CA1 (caspase activation)	-0.23	7.98
